Data reported in the supplement of paper PMC6411743.
± gives the standard deviation of the averaged measurements. This is a selection; strong and weak results do not stand in their true shares.

The chains behind the UniProt entries cited, without tags or fusion partners. Where a name states a change or a piece, a line headed by the entry shows the natural chain unless it says otherwise.
UniProt Q8IY63: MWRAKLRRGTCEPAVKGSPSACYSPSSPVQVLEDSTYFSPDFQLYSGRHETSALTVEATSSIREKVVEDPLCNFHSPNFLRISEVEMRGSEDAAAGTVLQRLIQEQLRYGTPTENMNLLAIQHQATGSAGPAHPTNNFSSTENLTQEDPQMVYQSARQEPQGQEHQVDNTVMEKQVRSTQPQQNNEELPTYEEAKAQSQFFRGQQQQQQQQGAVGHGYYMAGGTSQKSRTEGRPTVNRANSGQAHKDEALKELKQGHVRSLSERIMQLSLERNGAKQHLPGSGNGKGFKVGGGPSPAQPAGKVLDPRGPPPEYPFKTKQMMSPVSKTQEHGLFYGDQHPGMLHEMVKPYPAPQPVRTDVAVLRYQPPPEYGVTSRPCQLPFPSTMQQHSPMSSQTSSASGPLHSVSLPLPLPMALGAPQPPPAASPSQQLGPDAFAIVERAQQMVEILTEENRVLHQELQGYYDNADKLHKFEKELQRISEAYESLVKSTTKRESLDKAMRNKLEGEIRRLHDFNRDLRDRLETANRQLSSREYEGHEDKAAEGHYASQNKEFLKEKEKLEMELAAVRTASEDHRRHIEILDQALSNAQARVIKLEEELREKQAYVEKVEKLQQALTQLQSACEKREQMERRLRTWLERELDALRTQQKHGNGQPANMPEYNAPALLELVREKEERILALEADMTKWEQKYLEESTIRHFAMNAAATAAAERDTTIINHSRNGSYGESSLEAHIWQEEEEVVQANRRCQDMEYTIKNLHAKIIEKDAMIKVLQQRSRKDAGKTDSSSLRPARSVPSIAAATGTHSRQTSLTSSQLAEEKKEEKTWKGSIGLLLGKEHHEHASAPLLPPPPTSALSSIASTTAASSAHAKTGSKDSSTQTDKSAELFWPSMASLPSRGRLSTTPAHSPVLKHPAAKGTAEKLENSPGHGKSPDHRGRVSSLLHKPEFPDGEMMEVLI
UniProt Q8IWL3: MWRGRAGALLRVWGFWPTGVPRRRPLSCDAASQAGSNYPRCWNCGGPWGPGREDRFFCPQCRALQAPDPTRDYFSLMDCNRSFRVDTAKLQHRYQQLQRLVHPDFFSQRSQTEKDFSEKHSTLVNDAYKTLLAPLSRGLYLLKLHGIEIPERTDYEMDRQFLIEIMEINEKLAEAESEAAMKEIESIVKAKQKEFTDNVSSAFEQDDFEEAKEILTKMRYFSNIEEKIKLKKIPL
UniProt Q8N4Q0: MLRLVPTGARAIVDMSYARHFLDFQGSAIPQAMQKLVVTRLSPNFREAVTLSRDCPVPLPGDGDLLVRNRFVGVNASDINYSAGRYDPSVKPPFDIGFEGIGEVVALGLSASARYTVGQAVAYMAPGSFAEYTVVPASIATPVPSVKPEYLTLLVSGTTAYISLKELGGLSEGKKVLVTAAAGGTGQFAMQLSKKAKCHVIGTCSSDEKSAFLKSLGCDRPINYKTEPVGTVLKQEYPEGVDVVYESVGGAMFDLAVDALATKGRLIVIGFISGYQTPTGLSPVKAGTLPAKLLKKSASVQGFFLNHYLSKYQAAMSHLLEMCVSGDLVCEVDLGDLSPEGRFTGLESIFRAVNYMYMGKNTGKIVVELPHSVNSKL
UniProt Q7Z7L7: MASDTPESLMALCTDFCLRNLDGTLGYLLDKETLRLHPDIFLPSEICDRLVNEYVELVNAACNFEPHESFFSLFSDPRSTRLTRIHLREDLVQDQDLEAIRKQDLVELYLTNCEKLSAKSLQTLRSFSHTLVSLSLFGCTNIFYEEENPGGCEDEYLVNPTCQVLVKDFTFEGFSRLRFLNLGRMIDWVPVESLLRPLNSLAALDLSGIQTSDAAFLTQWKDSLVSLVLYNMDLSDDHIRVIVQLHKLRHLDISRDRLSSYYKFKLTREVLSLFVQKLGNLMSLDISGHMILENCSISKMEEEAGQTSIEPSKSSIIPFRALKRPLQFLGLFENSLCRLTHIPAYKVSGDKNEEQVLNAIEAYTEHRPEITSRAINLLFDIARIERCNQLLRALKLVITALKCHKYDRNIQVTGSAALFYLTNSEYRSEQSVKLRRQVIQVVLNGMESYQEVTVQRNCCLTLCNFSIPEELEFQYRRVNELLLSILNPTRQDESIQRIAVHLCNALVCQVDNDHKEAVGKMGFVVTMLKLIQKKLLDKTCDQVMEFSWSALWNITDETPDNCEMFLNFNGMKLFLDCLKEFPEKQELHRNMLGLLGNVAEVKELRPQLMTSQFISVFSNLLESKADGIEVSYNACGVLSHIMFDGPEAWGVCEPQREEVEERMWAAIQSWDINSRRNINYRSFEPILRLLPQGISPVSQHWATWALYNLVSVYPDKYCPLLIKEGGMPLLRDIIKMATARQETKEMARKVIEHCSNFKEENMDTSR
UniProt Q8IWV7: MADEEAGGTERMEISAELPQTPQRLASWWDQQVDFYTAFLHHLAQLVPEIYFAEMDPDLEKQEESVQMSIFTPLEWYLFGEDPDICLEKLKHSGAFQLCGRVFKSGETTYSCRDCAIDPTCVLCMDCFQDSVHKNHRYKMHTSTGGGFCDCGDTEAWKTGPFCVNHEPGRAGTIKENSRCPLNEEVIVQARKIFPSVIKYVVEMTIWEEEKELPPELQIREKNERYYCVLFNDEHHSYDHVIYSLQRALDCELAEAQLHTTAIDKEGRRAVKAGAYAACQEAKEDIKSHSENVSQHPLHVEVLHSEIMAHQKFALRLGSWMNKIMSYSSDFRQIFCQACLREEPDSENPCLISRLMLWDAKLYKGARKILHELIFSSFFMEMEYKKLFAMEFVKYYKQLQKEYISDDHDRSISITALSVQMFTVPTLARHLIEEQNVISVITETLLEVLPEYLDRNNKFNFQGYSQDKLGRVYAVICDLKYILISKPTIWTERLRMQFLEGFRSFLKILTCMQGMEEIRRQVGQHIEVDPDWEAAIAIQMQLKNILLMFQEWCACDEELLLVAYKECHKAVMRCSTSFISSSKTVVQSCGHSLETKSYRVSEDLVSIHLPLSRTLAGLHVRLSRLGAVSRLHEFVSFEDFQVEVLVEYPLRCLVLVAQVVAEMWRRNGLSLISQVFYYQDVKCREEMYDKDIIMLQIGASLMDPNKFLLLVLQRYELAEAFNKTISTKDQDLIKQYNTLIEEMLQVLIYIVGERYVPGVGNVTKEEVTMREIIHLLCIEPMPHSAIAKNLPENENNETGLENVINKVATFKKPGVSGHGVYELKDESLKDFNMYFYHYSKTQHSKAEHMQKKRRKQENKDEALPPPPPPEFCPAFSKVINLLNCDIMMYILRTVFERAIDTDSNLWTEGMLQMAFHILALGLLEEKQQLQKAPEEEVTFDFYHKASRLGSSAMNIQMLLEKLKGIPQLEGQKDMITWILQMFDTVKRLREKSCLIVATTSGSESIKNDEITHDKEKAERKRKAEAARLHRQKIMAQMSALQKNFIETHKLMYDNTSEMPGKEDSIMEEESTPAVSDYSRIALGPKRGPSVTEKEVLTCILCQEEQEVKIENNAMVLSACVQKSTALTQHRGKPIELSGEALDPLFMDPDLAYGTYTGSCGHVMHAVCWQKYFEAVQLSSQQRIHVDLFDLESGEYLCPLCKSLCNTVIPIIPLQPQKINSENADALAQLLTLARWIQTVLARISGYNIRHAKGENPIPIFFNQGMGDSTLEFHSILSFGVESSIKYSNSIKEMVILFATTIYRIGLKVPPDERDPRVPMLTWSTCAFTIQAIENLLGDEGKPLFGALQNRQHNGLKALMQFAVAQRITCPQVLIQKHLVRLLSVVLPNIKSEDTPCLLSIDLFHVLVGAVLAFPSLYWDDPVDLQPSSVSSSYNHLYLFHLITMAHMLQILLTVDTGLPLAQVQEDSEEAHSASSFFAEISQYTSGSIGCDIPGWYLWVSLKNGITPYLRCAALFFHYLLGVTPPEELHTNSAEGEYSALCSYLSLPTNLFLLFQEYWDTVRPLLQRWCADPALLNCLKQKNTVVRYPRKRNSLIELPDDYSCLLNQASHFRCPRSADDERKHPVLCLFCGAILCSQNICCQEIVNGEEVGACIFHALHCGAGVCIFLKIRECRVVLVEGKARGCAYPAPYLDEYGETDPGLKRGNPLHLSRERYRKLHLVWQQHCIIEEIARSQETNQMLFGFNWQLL
UniProt Q7Z6M1: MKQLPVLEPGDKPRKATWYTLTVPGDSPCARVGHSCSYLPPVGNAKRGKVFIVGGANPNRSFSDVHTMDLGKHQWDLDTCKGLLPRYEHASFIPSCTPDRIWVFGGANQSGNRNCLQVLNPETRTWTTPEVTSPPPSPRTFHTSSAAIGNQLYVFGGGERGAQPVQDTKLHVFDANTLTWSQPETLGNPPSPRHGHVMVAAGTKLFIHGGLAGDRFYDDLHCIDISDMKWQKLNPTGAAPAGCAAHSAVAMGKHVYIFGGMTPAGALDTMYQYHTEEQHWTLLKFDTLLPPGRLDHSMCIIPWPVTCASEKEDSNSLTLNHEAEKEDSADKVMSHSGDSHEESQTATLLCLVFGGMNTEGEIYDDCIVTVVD
UniProt Q8IX12: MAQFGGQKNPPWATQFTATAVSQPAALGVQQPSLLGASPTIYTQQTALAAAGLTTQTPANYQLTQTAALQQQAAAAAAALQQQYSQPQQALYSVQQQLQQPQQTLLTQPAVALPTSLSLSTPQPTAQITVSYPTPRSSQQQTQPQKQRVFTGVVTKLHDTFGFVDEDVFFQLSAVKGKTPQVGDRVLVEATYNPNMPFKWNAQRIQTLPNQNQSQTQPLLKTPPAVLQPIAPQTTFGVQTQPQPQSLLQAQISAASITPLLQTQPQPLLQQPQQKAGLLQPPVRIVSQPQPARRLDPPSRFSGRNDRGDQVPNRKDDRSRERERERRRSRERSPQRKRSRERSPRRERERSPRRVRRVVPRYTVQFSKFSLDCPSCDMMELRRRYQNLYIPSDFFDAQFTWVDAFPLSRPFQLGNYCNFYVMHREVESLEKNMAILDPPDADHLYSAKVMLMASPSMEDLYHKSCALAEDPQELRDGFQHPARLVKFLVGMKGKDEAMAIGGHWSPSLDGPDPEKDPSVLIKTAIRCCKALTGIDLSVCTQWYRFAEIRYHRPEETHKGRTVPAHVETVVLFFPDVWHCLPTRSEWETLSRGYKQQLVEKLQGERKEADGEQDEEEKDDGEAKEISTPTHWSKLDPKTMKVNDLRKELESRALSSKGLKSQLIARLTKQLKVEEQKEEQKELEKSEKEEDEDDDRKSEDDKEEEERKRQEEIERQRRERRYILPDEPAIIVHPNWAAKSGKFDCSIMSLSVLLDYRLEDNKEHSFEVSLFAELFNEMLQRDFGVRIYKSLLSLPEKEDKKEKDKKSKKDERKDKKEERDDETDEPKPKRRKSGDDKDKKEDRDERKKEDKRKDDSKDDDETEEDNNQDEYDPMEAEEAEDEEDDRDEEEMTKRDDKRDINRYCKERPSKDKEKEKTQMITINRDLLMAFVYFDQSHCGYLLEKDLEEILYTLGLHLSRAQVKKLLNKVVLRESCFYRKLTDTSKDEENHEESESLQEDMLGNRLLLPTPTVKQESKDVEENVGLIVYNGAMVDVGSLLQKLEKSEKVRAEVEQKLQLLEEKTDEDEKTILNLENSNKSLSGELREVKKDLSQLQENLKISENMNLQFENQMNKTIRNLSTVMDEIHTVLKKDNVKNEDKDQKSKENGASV
UniProt Q86SE9: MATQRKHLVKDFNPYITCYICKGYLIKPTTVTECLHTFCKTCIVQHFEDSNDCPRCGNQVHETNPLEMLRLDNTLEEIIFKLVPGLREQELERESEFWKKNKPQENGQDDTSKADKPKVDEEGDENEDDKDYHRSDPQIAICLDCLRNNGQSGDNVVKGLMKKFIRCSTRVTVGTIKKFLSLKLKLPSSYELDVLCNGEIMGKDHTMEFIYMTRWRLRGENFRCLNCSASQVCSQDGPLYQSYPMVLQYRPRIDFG
UniProt Q8N5G2: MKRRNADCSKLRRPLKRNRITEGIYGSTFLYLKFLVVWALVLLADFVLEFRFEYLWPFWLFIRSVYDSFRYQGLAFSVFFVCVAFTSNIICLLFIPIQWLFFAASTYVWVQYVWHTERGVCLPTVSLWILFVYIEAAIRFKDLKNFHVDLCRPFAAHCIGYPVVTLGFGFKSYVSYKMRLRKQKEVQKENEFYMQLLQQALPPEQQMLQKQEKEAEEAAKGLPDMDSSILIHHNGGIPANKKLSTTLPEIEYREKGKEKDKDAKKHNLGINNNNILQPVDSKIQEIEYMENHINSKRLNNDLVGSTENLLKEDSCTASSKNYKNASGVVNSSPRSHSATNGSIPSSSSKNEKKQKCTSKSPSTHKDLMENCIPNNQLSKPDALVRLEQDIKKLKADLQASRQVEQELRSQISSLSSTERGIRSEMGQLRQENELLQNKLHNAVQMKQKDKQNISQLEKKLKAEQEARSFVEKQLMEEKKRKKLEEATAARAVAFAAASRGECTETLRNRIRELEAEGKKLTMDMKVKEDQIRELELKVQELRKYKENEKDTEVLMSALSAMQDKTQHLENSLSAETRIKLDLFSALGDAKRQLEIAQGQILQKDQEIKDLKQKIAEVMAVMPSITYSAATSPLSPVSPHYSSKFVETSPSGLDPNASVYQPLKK

Compound: Nc1ncnc2c1ncn2[C@@H]1O[C@H](COP(=O)(O)OP(=O)(O)NP(=O)(O)O)[C@@H](O)[C@H]1O [adenylyl imidodiphosphate]
Test: NP40-soluble protein abundance relative to vehicle (solubility fold change) (ratio); higher = more soluble protein in presence of AMP-PNP
How it was run: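 Values are fold changes against the detergent-processed vehicle, based on vsn-normalised intensities. Jurkat crude lysate was treated at eight concentrations from 0.1 to 10 mM (10 min at room temperature, then 3 min at 37 °C), solubilised with 0.8% NP40 and benzonase, ultracentrifuged and analysed by TMT-labelled LC-MS/MS over three independent experiments.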

Target	NP40-soluble protein abundance (concentration: 1mM)	NP40-soluble protein abundance (concentration: 2mM)	NP40-soluble protein abundance (concentration: 4mM)	NP40-soluble protein abundance (concentration: 6mM)	NP40-soluble protein abundance (concentration: 8mM)	NP40-soluble protein abundance (concentration: 10mM)
UniProt Q8IY63 and related entries	0.997 ± 0.039	1.02 ± 0.032	1.02 ± 0.055	1.01 ± 0.051	1.01 ± 0.049	0.998 ± 0.047
UniProt Q8IZE3-2|X6RHX1	1 ± 0.051	1.01 ± 0.056	0.999 ± 0.064	0.973 ± 0.049	0.985 ± 0.046	0.989 ± 0.066
HSCB (UniProt Q8IWL3)	0.957 ± 0.017	0.9776 ± 0.0059	0.9805 ± 0.0047	0.969 ± 0.033	0.974 ± 0.019	0.957 ± 0.025
UniProt Q8N9N5 and related entries	0.976 ± 0.019	0.983 ± 0.026	0.997 ± 0.029	0.981 ± 0.022	0.95 ± 0.023	0.976 ± 0.017
GUF1 (UniProt Q8N442)	0.986 ± 0.026	0.965 ± 0.031	1.01 ± 0.028	0.983 ± 0.034	1.03 ± 0.059	1.03 ± 0.04
ZADH2 (UniProt Q8N4Q0)	0.986 ± 0.039	0.961 ± 0.051	1 ± 0.046	0.969 ± 0.06	0.996 ± 0.034	0.984 ± 0.043
UniProt Q7Z7L7	1.01 ± 0.025	0.988 ± 0.03	1.038 ± 0.0026	0.994 ± 0.015	1.01 ± 0.034	0.9764 ± 0.0041
UBR1 (UniProt Q8IWV7)	1.01 ± 0.013	0.981 ± 0.071	0.993 ± 0.039	0.96 ± 0.012	0.955 ± 0.034	0.922 ± 0.021
RABEPK (UniProt Q7Z6M1)	1.005 ± 0.0085	0.995 ± 0.021	1.02 ± 0.029	0.984 ± 0.025	0.978 ± 0.018	0.985 ± 0.022
UniProt Q8NBJ5	0.979 ± 0.032	0.932 ± 0.041	0.977 ± 0.012	0.968 ± 0.026	0.95 ± 0.019	0.937 ± 0.024
DHX37 (UniProt Q8IY37)	1.06 ± 0.044	1.08 ± 0.056	1.12 ± 0.022	1.1 ± 0.05	1.15 ± 0.073	1.17 ± 0.079
UniProt Q8IX12 and related entries	0.983 ± 0.015	0.9936 ± 0.0086	1.01 ± 0.046	1 ± 0.05	0.985 ± 0.045	1.02 ± 0.058
UniProt Q8N6R0 and related entries	0.998 ± 0.025	0.911 ± 0.066	0.991 ± 0.014	0.946 ± 0.019	0.969 ± 0.017	0.903 ± 0.023
PCGF5 (UniProt Q86SE9)	1.01 ± 0.043	1.01 ± 0.029	1.01 ± 0.065	0.967 ± 0.054	0.974 ± 0.039	0.945 ± 0.036
UniProt Q8N5G2	1.02 ± 0.053	1.03 ± 0.081	1.01 ± 0.075	1.02 ± 0.046	1.03 ± 0.077	1.02 ± 0.14
UniProt Q8IXJ6 and related entries	1 ± 0.065	1.03 ± 0.037	1.01 ± 0.04	0.98 ± 0.043	0.97 ± 0.04	0.987 ± 0.057
UniProt Q8IU60 and related entries	0.986 ± 0.055	0.987 ± 0.048	0.993 ± 0.067	0.97 ± 0.058	0.965 ± 0.038	0.982 ± 0.059
CISD2 (UniProt Q8N5K1)	1.02 ± 0.039	0.968 ± 0.02	0.991 ± 0.036	0.987 ± 0.069	1.01 ± 0.016	0.969 ± 0.039
UniProt Q8N9V3 and related entries	0.984 ± 0.038	0.99 ± 0.0057	0.968 ± 0.048	0.971 ± 0.013	0.961 ± 0.044	0.971 ± 0.011
UniProt Q8N9B5 and related entries	1.02 ± 0.014	1.02 ± 0.026	1.03 ± 0.027	1.04 ± 0.023	1.01 ± 0.0097	1.06 ± 0.043
UniProt Q7Z6E9 and related entries	1.09 ± 0.036	1.16 ± 0.068	1.15 ± 0.02	1.19 ± 0.096	1.19 ± 0.076	1.27 ± 0.08
DDX51 (UniProt Q8N8A6)	1.06 ± 0.018	1.09 ± 0.02	1.15 ± 0.059	1.2 ± 0.038	1.24 ± 0.033	1.423 ± 0.014
UniProt Q8IUI8 and related entries	0.977 ± 0.018	0.943 ± 0.051	0.964 ± 0.012	0.979 ± 0.06	0.986 ± 0.044	0.946 ± 0.055
MRPL41 (UniProt Q8IXM3)	0.973 ± 0.047	0.997 ± 0.033	0.932 ± 0.038	0.915 ± 0.11	0.892 ± 0.078	0.904 ± 0.079
UniProt Q8IUH3-3	1 ± 0.017	1 ± 0.066	1.02 ± 0.04	1.03 ± 0.034	1 ± 0.022	1.03 ± 0.037
AGGF1 (UniProt Q8N302)	1.04 ± 0.03	1.04 ± 0.068	1.04 ± 0.05	1.02 ± 0.037	1.03 ± 0.02	1.04 ± 0.025

An excerpt from above, reduced to NP40-soluble protein abundance (concentration: 6mM):
Target,NP40-soluble protein abundance (concentration: 6mM)
DHX37 (UniProt Q8IY37),1.1 ± 0.05
UniProt Q8IX12 and related entries,1 ± 0.05
